Measured values published in patent publication US4048307A, “Cyclic adenosine monophosphate 8-substituted derivatives” (priority 1974, dated 1977).
Like-named read-outs stand apart in the source and are kept apart here. At least one read-out could not be matched to a standard name with certainty.

Target: Hog Brain Phosphodiesterase (PDE)
Assay: Inhibition of c-AMP hydrolysis by hog brain phosphodiesterase (PDE)
Format: biochemical
Description: **PDE inhibition was evaluated based on the relative inhibition observed
when the sample compound was added at the same molar concentration as tha
of the substrate (1 millimole/liter) and the inhibition constant (ki)
calculated according to the enzymological method (Lineweaver-Burk plot).
The enzyme purification was conducted by ammonium sulfate fractionation and passage through DEAE cellulose column according to the modification of the method of T. S. Teo, T. T. Wang et al. (J. Biol. Chemi. 248, 585). […] Reaction and analysis were carried out as taught by Bucher and Sutherland [J. Biol. Chemi., 237, 1244 (1962)].
*: The values were calculated according the following equation: 100
containing no inhibitor.
**: Ki values were calculated from the slope of Lineweaver-Burk plot and
the cross-point of Dixon plot.?

[1] = Lineweaver-Burk plot slope and Dixon plot cross-point, read-out: Inhibition II: Inhibition Constant (Ki)

| Compound | Ki [1] [mM] | Ki (read-out: inhibition constants) [mM] |
| --- | --- | --- |
| CCCCCCCCNc1nc2c(N)ncnc2n1[C@@H]1O[C@@H]2COP(=O)(O)O[C@H]2[C@H]1O [8-CH3 (CH2)7 NH-c-AMP, 8-n-octylamino-c-AMP] | 0.0093 | 9.3 |
| CCCCCCCSc1nc2c(N)ncnc2n1[C@@H]1O[C@@H]2COP(=O)(O)O[C@H]2[C@H]1O [8-CH3 (CH2)6 S-c-AMP, 8-n-heptylmercapto-c-AMP] | 0.0095 | 9.5 |
